The target of the experiment is T1, Flag-tagged NDRG2 (N-myc downstream-regulated gene 2), stably expressed in HUT102 cells (UniProt Q9UN36).
T1 sequence: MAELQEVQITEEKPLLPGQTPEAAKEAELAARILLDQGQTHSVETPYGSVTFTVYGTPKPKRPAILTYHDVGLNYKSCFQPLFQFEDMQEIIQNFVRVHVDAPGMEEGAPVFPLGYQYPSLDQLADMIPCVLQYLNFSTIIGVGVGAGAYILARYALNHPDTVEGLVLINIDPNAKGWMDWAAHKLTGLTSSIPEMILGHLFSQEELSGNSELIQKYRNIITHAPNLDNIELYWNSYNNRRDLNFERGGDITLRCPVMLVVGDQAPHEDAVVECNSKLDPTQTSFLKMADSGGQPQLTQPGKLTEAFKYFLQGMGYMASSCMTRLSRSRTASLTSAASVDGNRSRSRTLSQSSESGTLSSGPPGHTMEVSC
Put plainly: co-IP; lysates of HUT102 cells stably expressing Flag-NDRG2, treated with MG132; immunoprecipitated with anti-Flag and with anti-NIK antibodies, blotted for the other; washed 3 times with PBS.

Amino acid sequences for entries named in this document (tags omitted).
UniProt Q99558: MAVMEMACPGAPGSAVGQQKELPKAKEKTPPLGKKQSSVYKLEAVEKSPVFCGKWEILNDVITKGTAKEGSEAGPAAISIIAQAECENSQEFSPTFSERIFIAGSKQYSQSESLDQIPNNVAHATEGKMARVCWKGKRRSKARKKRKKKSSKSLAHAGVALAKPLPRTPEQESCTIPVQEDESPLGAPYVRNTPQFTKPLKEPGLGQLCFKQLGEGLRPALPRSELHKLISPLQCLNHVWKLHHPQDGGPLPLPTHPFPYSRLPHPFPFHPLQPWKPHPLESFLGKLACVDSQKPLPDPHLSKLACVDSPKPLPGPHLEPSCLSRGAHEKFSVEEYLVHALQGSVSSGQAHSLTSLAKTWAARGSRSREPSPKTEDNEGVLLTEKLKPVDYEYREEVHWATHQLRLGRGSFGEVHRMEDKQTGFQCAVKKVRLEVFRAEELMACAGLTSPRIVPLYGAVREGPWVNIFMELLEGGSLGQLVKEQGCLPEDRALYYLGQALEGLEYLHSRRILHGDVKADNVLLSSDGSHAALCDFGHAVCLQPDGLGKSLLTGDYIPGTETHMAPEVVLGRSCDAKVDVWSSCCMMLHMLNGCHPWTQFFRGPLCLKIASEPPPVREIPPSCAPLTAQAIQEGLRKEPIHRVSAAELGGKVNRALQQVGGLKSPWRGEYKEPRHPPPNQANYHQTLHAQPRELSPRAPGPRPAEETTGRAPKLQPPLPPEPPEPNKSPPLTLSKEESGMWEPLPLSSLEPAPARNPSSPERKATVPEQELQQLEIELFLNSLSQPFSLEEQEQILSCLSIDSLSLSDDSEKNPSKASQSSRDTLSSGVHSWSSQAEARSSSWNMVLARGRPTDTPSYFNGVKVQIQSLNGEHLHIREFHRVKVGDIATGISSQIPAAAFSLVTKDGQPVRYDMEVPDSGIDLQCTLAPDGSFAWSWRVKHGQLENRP

No constants are given. Whether binding was seen depends on the method and setting. In cells and extracts the contact can be indirect. Some results given as binding are weak or reduced against the parent protein; the word gives no strength. Tags and fused reporters may be left off the sequences shown.

For the substance “NF-κB-inducing kinase (NIK), endogenous in HUT102 cells (from UniProt Q99558 1-947)”, the binding result is given as “binds”.

For the origin of these results see PMC4534796.
